Experiment [1] addresses T1, GST-ATM-1 (residues 1–250) (human) (UniProt Q13315).
T1 sequence: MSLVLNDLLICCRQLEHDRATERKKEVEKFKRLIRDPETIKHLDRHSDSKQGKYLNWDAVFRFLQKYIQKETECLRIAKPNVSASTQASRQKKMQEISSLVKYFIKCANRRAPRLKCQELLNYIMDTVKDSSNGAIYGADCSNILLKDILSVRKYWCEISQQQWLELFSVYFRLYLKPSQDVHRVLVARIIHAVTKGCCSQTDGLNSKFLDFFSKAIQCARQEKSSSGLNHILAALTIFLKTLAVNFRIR
The experiment in a line: pull-down; GST pull-down: bacterially expressed 6 × His SIRT6 incubated separately with GST-ATM fragments in 150 mM NaCl, 20 mM Tris-HCl pH 7.5, 5 mM MgCl2, 0.2 mM EDTA, 10% glycerol, 0.2% NP-40; Glutathione Sepharose; washed with TEN buffer (300 mM NaCl); both purified.

By UniProt entry, the sequences of proteins in these tests, tags left out. Where a name states a change or a piece, a line headed by the entry shows the natural chain unless it says otherwise.
UniProt Q8N6T7: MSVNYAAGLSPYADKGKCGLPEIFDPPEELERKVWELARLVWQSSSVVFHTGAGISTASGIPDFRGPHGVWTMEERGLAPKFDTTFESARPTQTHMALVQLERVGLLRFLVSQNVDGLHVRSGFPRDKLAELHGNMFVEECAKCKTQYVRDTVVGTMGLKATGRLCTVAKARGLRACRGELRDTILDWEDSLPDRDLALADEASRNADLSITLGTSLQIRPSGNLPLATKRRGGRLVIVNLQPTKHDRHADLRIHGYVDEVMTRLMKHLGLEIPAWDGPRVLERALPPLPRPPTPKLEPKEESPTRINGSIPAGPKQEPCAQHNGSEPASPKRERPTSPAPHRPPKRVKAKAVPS
UniProt Q00987: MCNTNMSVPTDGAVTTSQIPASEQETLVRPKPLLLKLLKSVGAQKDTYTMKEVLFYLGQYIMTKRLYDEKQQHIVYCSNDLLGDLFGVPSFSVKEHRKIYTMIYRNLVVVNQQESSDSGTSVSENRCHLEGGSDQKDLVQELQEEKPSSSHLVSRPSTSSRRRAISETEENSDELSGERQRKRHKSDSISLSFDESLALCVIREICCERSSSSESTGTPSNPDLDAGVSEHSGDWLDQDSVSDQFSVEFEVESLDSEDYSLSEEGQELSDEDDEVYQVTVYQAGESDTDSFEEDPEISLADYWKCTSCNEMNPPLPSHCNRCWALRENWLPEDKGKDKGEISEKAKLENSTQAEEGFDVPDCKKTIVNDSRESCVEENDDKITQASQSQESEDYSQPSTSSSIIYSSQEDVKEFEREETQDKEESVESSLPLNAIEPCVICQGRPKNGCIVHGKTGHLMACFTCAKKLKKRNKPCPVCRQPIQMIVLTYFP

For experiment [2], the target named is Flag-SIRT6 S112A (human) (UniProt Q8N6T7). The experiment in a line: co-IP; anti-Flag immunoprecipitates from HEK293 cells expressing Flag-SIRT6 or Flag-SIRT6 S112A, blotted for MDM2; also WT and ATM KO HEK293 cells.
In experiment [3] the target is Flag-SIRT6 (human) (UniProt Q8N6T7). The experiment is described as above.

Drawing on article PMC5957528, “Boosting ATM activity alleviates aging and extends lifespan in a mouse model of progeria” (eLife, 2018), this text covers binding for two substances.

No constants are given. Whether binding was seen depends on the method and setting. For part of these data: Binding seen in cells or lysates may run through a third protein. Some binding calls cover weakened binding; strength is not graded here. For part of these data: Where a sequence is shown, tags or fusion partners need not be part of it.

As to His-SIRT6 (from UniProt Q8N6T7 1-355), the binding result in experiment [1] is recorded as “binds weakly”.

For MDM2 (from UniProt Q00987 1-491), the binding result in experiment [2] and in experiment [3] was “binds” throughout.
